Assay results: PubChem BioAssay AID1671190 (National Center for Advancing Translational Sciences (NCATS), 2021)
The campaign covered roughly 580,000 compounds. About 6,100 (1.1%) were called active. Inconclusive results, whose numbers are uncertain, are shown with a selection of clear calls. The call rests on the fitted dose curve; in most records, active means well fitted inhibition curve with a large enough effect; inconclusive means small, poorly fitted or top-dose-only effect, or another doubt; inactive means no such curve, though single readings can be large or run the other way. Potencies beside an inconclusive call are fits to weak or partial responses and may not hold up.

Protein sequences, listed by entry. Tags and fused reporters are not part of them.
UniProt P18054, whole entry, looked up: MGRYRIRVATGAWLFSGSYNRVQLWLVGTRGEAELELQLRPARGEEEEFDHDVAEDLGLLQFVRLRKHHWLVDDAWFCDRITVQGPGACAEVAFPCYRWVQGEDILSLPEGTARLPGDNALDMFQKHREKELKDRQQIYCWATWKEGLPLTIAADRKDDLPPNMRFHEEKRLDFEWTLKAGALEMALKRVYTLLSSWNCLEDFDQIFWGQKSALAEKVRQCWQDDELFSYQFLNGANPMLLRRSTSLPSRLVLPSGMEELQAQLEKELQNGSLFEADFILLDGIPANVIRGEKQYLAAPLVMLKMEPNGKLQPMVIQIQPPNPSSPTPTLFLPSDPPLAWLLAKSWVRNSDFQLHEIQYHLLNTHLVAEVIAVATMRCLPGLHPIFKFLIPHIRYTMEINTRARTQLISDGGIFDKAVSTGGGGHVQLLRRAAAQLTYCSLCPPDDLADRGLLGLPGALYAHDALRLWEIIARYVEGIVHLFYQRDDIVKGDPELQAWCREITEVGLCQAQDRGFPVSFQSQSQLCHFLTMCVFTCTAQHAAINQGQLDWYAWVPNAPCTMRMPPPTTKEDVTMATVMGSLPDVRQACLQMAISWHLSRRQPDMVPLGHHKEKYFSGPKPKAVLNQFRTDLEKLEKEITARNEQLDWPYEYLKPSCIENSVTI

These compounds were tested against Polyunsaturated fatty acid lipoxygenase ALOX12 (Homo sapiens) (UniProt P18054) (assay: Primary qHTS assay for inhibitors of human arachidonate 12S-lipoxygenase (ALOX12): Round 2). Conditions: purified 12hLO, xylenol orange hydroperoxide absorbance; series mostly up to 108 µM.
Outline: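 Hydroperoxide product was detected by ferrous iron/xylenol orange as the 573 to 405 nm absorbance ratio. Arachidonic acid at 40 uM (final) was turned over for 30 min at room temperature by 150 nM human 12hLO, pH 7.0 Hepes buffer, after 15 min compound preincubation.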
Potency means the concentration at half of the fitted maximal effect.

SMILES | Potency
O=C(CSc1ccc(Cl)cc1)Nn1cnnc1 | inactive
CCc1c(C)nc2cc(-c3cccc(Br)c3)[nH]n2c1=O | inactive
N#Cc1ccc(NC(=S)NC(=O)C2CCCCC2)cc1 | inconclusive: 50.1 µM [inhibitor, partial curve, poor fit]
COc1cc2c(cc1OC)C1=C(C#N)CN(C3CCCCC3)CN1CC2 | active: 39.8 µM
C=CCOc1cccc(-c2nnc(CCC(=O)NCc3ccc(F)cc3)c(=O)[nH]2)c1 | inactive
CCN(CC)CCCn1c(=S)[nH]c2ccccc2c1=O | inconclusive: 31.6 µM [inhibitor, partial curve, poor fit]
COCCn1c(SCC(=O)Nc2cccc(C(F)(F)F)c2)nc2ccsc2c1=O | inactive
O=C(c1cc(COc2c(F)cccc2F)on1)N1CCCCCC1 | inactive
CCOC(=O)C1(CCSC)NC(c2ccco2)C2C(=O)N(CC)C(=O)C21 (centres undefined) | inconclusive: 44.7 µM [inhibitor, partial curve, poor fit]
CCOC(=O)c1c(C)[nH]c(C(=O)OCC(=O)Nc2cc(Cl)ccc2OC)c1C | inconclusive: 70.8 µM [inhibitor, partial curve, poor fit]
CC(C)(C)NC(=O)/C(=C/c1ccc(-c2ccc(Cl)cc2)o1)NC(=O)c1ccc(Cl)cc1 | inconclusive: 56.2 µM [inhibitor, partial curve, poor fit]
C=CC(C1=CC(=O)C=CC1=O)c1ccc(O)cc1 (centres undefined) | inconclusive: 35.5 µM [inhibitor, partial curve, poor fit]
CCOC(=O)c1cccc(NC(=O)N2CC[C@@H](CC(=O)N3CCOCC3)[C@@H](CC)C2)c1 | inconclusive: 100 µM [inhibitor, partial curve, poor fit]
CC(C)C(=O)N1N=C(c2ccco2)CC1c1ccc2nccnc2c1 (centres undefined) | inconclusive: 126 µM [inhibitor, single point]
Cc1cc(C)n2nc(C(=O)OCc3cc(=O)oc4cc(C)c(C(C)C)cc34)nc2n1 | inconclusive: 44.7 µM [inhibitor, partial curve, poor fit]
CC(=O)NCCNc1nc(-c2cccc(NS(C)(=O)=O)c2)nc2ccccc12 | active: 2.24 µM
O=c1[nH]c(C2CCCN(Cc3ccc(-c4cccs4)cc3)C2)nc2ccc(F)cc12 (centres undefined) | inconclusive: 11.2 µM [inhibitor, full curve]
Cc1ccc(Cn2c(SCC(=O)O)nc3c2c(=O)n(C)c(=O)n3C)cc1 | inconclusive: 5.01 µM [inhibitor, full curve]
C[C@@H](O)C1NC(=O)[C@H](CCCCN)NC(=O)c2cc([N+](=O)[O-])cc(I)c2NCCC[C@@H](C(N)=O)NC1=O (some centres undefined) | inconclusive: 50.1 µM [inhibitor, partial curve, poor fit]

Arranged by formula weight (ascending): part of the list above.
SMILES | Potency
N#Cc1ccc(NC(=S)NC(=O)C2CCCCC2)cc1 | inconclusive: 50.1 µM [inhibitor, partial curve, poor fit]
COc1cc2c(cc1OC)C1=C(C#N)CN(C3CCCCC3)CN1CC2 | active: 39.8 µM
CCOC(=O)C1(CCSC)NC(c2ccco2)C2C(=O)N(CC)C(=O)C21 (centres undefined) | inconclusive: 44.7 µM [inhibitor, partial curve, poor fit]
CCOC(=O)c1cccc(NC(=O)N2CC[C@@H](CC(=O)N3CCOCC3)[C@@H](CC)C2)c1 | inconclusive: 100 µM [inhibitor, partial curve, poor fit]
CC(C)(C)NC(=O)/C(=C/c1ccc(-c2ccc(Cl)cc2)o1)NC(=O)c1ccc(Cl)cc1 | inconclusive: 56.2 µM [inhibitor, partial curve, poor fit]
